Values from PubChem BioAssay AID1259254 (NCATS, 2017)
In all, the deposit lists about 59,000 reagents; below is a part drawn at random. Of all reagents, about 1,550 (2.6%) are marked active. 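G2 share is only a proxy for re-replication; each gene was hit by three separate siRNAs, and active genes were retested.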 A number with no mark means an inactive call. Reagents against one gene are numbered here. Further read-outs or replicates are left out here. No sequences are given here. The record does not give: the amount of reagent.

Test: 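Genome-wide screen for genes that prevent DNA re-replication in cancer cells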 (primary screen)
Cells: human HCT116 colorectal cancer cells
Reagent: single siRNA against human genes
Duration: 3 days
Read-out: 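Imaged Hoechst DNA stain sorts each cell into a cycle phase by DNA amount; per plate, G2 fraction set to 0% for non-targeting and 100% for GMNN siRNA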
Scale: G2 robust z-score: higher = more G2 cells, more excess DNA replication
Rule for the call: 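An siRNA counts as active if its G2 robust z-score lies at least 5 MADs above the screen median; here such calls match roughly 38% of GMNN control or more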

{"target":"PANK4 (GeneID 55229)","reagent no.":1,"G2 robust z-score":-0.707}
{"target":"PANK4 (GeneID 55229)","reagent no.":2,"G2 robust z-score":-0.937}
{"target":"PANK4 (GeneID 55229)","reagent no.":3,"G2 robust z-score":-0.469}
{"target":"RAB25 (GeneID 57111)","reagent no.":1,"G2 robust z-score":-0.574}
{"target":"RAB25 (GeneID 57111)","reagent no.":2,"G2 robust z-score":-0.447}
{"target":"RAB25 (GeneID 57111)","reagent no.":3,"G2 robust z-score":0.364}
{"target":"BMAL1 (GeneID 406)","reagent no.":1,"G2 robust z-score":-0.924}
{"target":"BMAL1 (GeneID 406)","reagent no.":2,"G2 robust z-score":-1.16}
{"target":"BMAL1 (GeneID 406)","reagent no.":3,"G2 robust z-score":-0.951}
{"target":"WDR41 (GeneID 55255)","reagent no.":1,"G2 robust z-score":-0.646}
{"target":"WDR41 (GeneID 55255)","reagent no.":2,"G2 robust z-score":"6.44 (active)"}
{"target":"WDR41 (GeneID 55255)","reagent no.":3,"G2 robust z-score":0.436}

Records listed so far marked active, once more:
{"target":"WDR41 (GeneID 55255)","reagent no.":2,"G2 robust z-score":"6.44 (active)"}

The results go on:
{"target":"SUSD3 (GeneID 203328)","reagent no.":1,"G2 robust z-score":0.548}
{"target":"SUSD3 (GeneID 203328)","reagent no.":2,"G2 robust z-score":-0.085}
{"target":"SUSD3 (GeneID 203328)","reagent no.":3,"G2 robust z-score":-0.305}
{"target":"NT5C3A (GeneID 51251)","reagent no.":1,"G2 robust z-score":2.49}
{"target":"NT5C3A (GeneID 51251)","reagent no.":2,"G2 robust z-score":0.14}
{"target":"NT5C3A (GeneID 51251)","reagent no.":3,"G2 robust z-score":-0.451}
{"target":"TM4SF4 (GeneID 7104)","reagent no.":1,"G2 robust z-score":1.52}
{"target":"TM4SF4 (GeneID 7104)","reagent no.":2,"G2 robust z-score":-0.356}
{"target":"TM4SF4 (GeneID 7104)","reagent no.":3,"G2 robust z-score":0.15}
{"target":"ARHGAP39 (GeneID 80728)","reagent no.":1,"G2 robust z-score":-0.0848}
{"target":"ARHGAP39 (GeneID 80728)","reagent no.":2,"G2 robust z-score":1.21}
{"target":"ARHGAP39 (GeneID 80728)","reagent no.":3,"G2 robust z-score":-0.0855}
